In patent publication US20030129629A1, “Methods and compositions for the identification, assessment, prevention, and therapy of human cancers” (Millennium Pharmaceuticals, Inc., priority 2000, published 2003):
“And” between values parts separate entries of the source, which are not always exact repeats. Identical values can stand only once. Counter-ions that a name gives are not always drawn. The name of at least one read-out is uncertain.

Tested on: 60 cancer cell lines (NCI 60 cancer cell line series)
Experiment: NCI-DTP in vitro cancer screen, sulforhodamine B (SRB) growth inhibition, 48 hour exposure
Type: cell-based, human
Method: Cancer Cell Line Preparation. Sixty cancer cell lines were obtained from the National Cancer Institute Developmental Therapeutics Program (NCI-DTP). Procedures for growing cells and testing compounds have been described previously (Scudiero et al., Cancer Res. 1988, 48:4827-4833; Stinson et al., Anticancer Res.; Myers et al., Electrophoresis 1997, 18:647-653). Cells are plated on day 0 at a density individualized for each cell line so that they will generally be sub-confluent at the end of the assay period. On day 1, a compound is added in the format for a duplicate-well, 5-dose, ten-fold interval dose response study.
No-drug, no-cell and no-growth controls are included. On day 3 the cells are processed for staining with sulforhodamine B (SRB), which reflects the amount of cell mass present at the end of a 48 hour exposure to the test agent. From dose response curves based on the SRB data, various parameters can be determined. […] More precisely, the quantity used in the calculation to be described is the potency measure −log{GI50}.
Activity database (A). […] This subset of compounds was selected from the larger 23,000 compound database available from the DTP. The compounds were selected on the basis of their known mechanism of action and chemical structure. The average potency −log{GI50} was extracted from the comma-delimited text files available through the Web at http://www.nci.nih.gov/intra/lmp/jnwbio.html. Subsequently, these −log{GI50} values were inspected manually and classified as indicating either Low, Medium or High sensitivity to each compound.

SMILES	classification of cell line as Low(1), Medium(2), High(3) sensitivity to compound (Breast MCF7(I) CL5001)	classification of cell line as Low(1), Medium(2), High(3) sensitivity to compound (Breast T-47D CL5014)	classification of cell line as Low(1), Medium(2), High(3) sensitivity to compound (CNS SNB-75(I) CL12005)	classification of cell line as Low(1), Medium(2), High(3) sensitivity to compound (Colon COLO-250 CL4010)	classification of cell line as Low(1), Medium(2), High(3) sensitivity to compound (Colon SW-620 CL4009)	classification of cell line as Low(1), Medium(2), High(3) sensitivity to compound (Leukemia CCRF-CEM(I) CL7003)	classification of cell line as Low(1), Medium(2), High(3) sensitivity to compound (Leukemia K562(I) CL7005)	classification of cell line as Low(1), Medium(2), High(3) sensitivity to compound (Melanoma LOX IMVI CL10001)	classification of cell line as Low(1), Medium(2), High(3) sensitivity to compound (Melanoma MALME-3M CL10002)	sensitivity classification Low(1)/Medium(2)/High(3) (NSCLC NCI-H522 CL1003)	sensitivity classification Low(1)/Medium(2)/High(3) (Ovarian OVCAR-5 CL6003)	sensitivity classification Low(1)/Medium(2)/High(3) (Renal A498 CL9013)	classification of cell line as Low(1), Medium(2), High(3) sensitivity to compound (Colon HT29(I) CL4001)	classification of cell line as Low(1), Medium(2), High(3) sensitivity to compound (Melanoma UACC-257 CL10021)	sensitivity classification Low(1)/Medium(2)/High(3) (Prostate PC-3(I) CL11001)	further results
CC(=O)O[C@H]1C(=O)[C@@]2(C)[C@H]([C@H](OC(=O)c3ccccc3)[C@]3(O)C[C@H](OC(=O)[C@H](O)[C@@H](NC(=O)c4ccccc4)c4ccccc4)C(C)=C1C3(C)C)[C@]1(OC(C)=O)CO[C@@H]1C[C@@H]2O [TAXOL, paclitaxel, reference compound]	2 and 3	2 and 1	3 and 2	2 and 3	3 and 2	3 and 2	2 and 3	3 and 2	1 and 2	3 and 2	2 and 1	2 and 1	–	–	–	classification of cell line as Low(1), Medium(2), High(3) sensitivity to compound (Breast HS-578T CL5006): 2 and 3; classification of cell line as Low(1), Medium(2), High(3) sensitivity to compound (Colon HCC-2998 CL4002): 3 and 2; classification of cell line as Low(1), Medium(2), High(3) sensitivity to compound (Leukemia HL-60(I) CL7008): 2 and 3; classification of cell line as Low(1), Medium(2), High(3) sensitivity to compound (Leukemia SR CL7019): 2 and 3; classification of cell line as Low(1), Medium(2), High(3) sensitivity to compound (Melanoma SK-MEL-2 CL10005): 3 and 2; classification of cell line as Low(1), Medium(2), High(3) sensitivity to compound (Melanoma SK-MEL-28 CL10008): 1 and 2; sensitivity classification Low(1)/Medium(2)/High(3) (NSCLC NCI-H460 CL1021): 2 and 3; sensitivity classification Low(1)/Medium(2)/High(3) (Ovarian OVCAR-3 CL6001): 3 and 2; sensitivity classification Low(1)/Medium(2)/High(3) (Renal TK10 CL9024): 2 and 1
CC[C@]1(O)C[C@@H]2CN(CCc3c([nH]c4ccccc34)[C@@](C(=O)OC)(c3cc4c(cc3OC)N(C)[C@H]3[C@@](O)(C(=O)OC)[C@H](OC(C)=O)[C@]5(CC)C=CCN6CC[C@]43[C@@H]65)C2)C1 [Vinblastine sulfate]	3 and 2	3 and 1	2 and 3	2 and 3	–	–	3 and 2	3 and 2	–	–	2 and 1	1 and 2	2 and 3	1 and 2	2 and 3	classification of cell line as Low(1), Medium(2), High(3) sensitivity to compound (Breast BT-549 CL5013): 3 and 2; classification of cell line as Low(1), Medium(2), High(3) sensitivity to compound (Colon HCT-116 CL4003): 3 and 2; classification of cell line as Low(1), Medium(2), High(3) sensitivity to compound (Leukemia RPMI-8226(I) CL7010): 1 and 2; sensitivity classification Low(1)/Medium(2)/High(3) (Ovarian OVCAR-4 CL6002): 2 and 1; sensitivity classification Low(1)/Medium(2)/High(3) (Prostate DU-145 CL11003): 2 and 3; sensitivity classification Low(1)/Medium(2)/High(3) (Renal ACHN CL9023): 1 and 2
CN(Cc1cnc2nc(N)nc(N)c2n1)c1ccc(C(=O)N[C@@H](CCC(=O)O)C(=O)O)cc1 [Methotrexate]	3 and 2	–	2 and 1	–	2 and 3	2 and 3	–	–	1 and 2	1 and 2	–	–	2 and 3	1 and 2	3 and 2	classification of cell line as Low(1), Medium(2), High(3) sensitivity to compound (Breast MDA-MB-435 CL5011): 2 and 3; classification of cell line as Low(1), Medium(2), High(3) sensitivity to compound (Breast MDA-N CL5012): 3 and 2; classification of cell line as Low(1), Medium(2), High(3) sensitivity to compound (CNS SNB-19 CL12002): 1 and 2; classification of cell line as Low(1), Medium(2), High(3) sensitivity to compound (Leukemia MOLT-4 CL7006): 2 and 3; classification of cell line as Low(1), Medium(2), High(3) sensitivity to compound (Melanoma M14 CL10014): 2 and 3; sensitivity classification Low(1)/Medium(2)/High(3) (Ovarian OVCAR-8 CL6005): 2 and 3; sensitivity classification Low(1)/Medium(2)/High(3) (Ovarian SK-OV-3 CL6011): 2 and 1; sensitivity classification Low(1)/Medium(2)/High(3) (Renal 786-0 CL9018): 2 and 3; sensitivity classification Low(1)/Medium(2)/High(3) (Renal CAKI-1 CL9015): 3 and 2
